# Source: publication PMC6605799
# These are yes or no findings as the source states them, for the method shown. For some assays here: In cells and extracts the contact can be indirect. Sequences can lack the tags named with a protein.
# T1: GFP-RAB6A-S52D (human) (UniProt P20340)
# T1 sequence: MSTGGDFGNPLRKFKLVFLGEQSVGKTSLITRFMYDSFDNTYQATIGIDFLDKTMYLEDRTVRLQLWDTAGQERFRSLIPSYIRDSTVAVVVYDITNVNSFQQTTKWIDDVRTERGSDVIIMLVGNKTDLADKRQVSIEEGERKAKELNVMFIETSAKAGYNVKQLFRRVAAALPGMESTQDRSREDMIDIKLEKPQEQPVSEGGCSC
# T2: ELKS full length (LexA fusion) (UniProt Q8IUD2)
# T2 sequence: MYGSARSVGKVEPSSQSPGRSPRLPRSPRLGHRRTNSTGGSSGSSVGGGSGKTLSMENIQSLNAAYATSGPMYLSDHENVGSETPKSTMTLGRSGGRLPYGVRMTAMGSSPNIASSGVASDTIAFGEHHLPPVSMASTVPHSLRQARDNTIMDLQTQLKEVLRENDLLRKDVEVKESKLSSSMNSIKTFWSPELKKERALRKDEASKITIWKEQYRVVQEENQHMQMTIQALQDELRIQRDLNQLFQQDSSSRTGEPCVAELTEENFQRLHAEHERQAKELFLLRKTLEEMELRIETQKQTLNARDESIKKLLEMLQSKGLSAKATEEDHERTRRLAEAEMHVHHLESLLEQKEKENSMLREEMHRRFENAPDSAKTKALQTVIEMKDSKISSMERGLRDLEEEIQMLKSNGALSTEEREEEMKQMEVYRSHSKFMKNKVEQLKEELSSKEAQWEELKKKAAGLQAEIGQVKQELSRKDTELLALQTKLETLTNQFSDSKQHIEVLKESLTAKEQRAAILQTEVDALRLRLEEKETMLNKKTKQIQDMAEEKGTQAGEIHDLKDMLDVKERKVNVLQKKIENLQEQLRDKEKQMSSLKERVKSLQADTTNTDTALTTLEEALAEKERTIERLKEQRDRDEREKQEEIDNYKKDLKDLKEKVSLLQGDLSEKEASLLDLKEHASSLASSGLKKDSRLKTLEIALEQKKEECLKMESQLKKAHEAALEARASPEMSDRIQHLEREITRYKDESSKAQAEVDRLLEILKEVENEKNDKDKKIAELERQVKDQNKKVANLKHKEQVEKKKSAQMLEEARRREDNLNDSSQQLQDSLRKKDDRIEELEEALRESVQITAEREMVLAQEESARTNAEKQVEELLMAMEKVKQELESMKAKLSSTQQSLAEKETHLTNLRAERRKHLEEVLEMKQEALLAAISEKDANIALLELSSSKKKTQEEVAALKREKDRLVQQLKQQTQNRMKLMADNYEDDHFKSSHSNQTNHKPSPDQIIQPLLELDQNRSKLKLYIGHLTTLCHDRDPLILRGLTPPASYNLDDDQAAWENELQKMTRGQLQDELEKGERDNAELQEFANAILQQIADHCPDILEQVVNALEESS
# Experiments:
# [1] = target: T1, GFP-RAB6A-S52D (human); assay: co-IP; GFP-trap (Chromotek) on extracts of HeLa cells transfected with GFP, GFP-RAB6A or GFP-RAB6A-S52D; lysis buffer 25 mM Tris pH 7.5, 100 mM NaCl, 0.1% NP-40; endogenous ELKS
# [2] = target: T2, ELKS full length (LexA fusion); assay: two-hybrid; S. cerevisiae reporter strain L40; LexA fusion of ELKS full length and GAL4 fusions of RAB6A-Q72L or RAB6A-Q72L-S52D; growth on medium lacking histidine (-L-W-H) indicates interaction
Binder,binding [1],binding [2]
"endogenous ELKS (protein, UniProt Q8IUD2 1-1116) MYGSARSVGKVEPSSQSPGRSPRLPRSPRLGHRRTNSTGGSSGSSVGGGSGKTLSMENIQSLNAAYATSGPMYLSDHENVGSETPKSTMTLGRSGGRLPYGVRMTAMGSSPNIASSGVASDTIAFGEHHLPPVSMASTVPHSLRQARDNTIMDLQTQLKEVLRENDLLRKDVEVKESKLSSSMNSIKTFWSPELKKERALRKDEASKITIWKEQYRVVQEENQHMQMTIQALQDELRIQRDLNQLFQQDSSSRTGEPCVAELTEENFQRLHAEHERQAKELFLLRKTLEEMELRIETQKQTLNARDESIKKLLEMLQSKGLSAKATEEDHERTRRLAEAEMHVHHLESLLEQKEKENSMLREEMHRRFENAPDSAKTKALQTVIEMKDSKISSMERGLRDLEEEIQMLKSNGALSTEEREEEMKQMEVYRSHSKFMKNKVEQLKEELSSKEAQWEELKKKAAGLQAEIGQVKQELSRKDTELLALQTKLETLTNQFSDSKQHIEVLKESLTAKEQRAAILQTEVDALRLRLEEKETMLNKKTKQIQDMAEEKGTQAGEIHDLKDMLDVKERKVNVLQKKIENLQEQLRDKEKQMSSLKERVKSLQADTTNTDTALTTLEEALAEKERTIERLKEQRDRDEREKQEEIDNYKKDLKDLKEKVSLLQGDLSEKEASLLDLKEHASSLASSGLKKDSRLKTLEIALEQKKEECLKMESQLKKAHEAALEARASPEMSDRIQHLEREITRYKDESSKAQAEVDRLLEILKEVENEKNDKDKKIAELERQVKDQNKKVANLKHKEQVEKKKSAQMLEEARRREDNLNDSSQQLQDSLRKKDDRIEELEEALRESVQITAEREMVLAQEESARTNAEKQVEELLMAMEKVKQELESMKAKLSSTQQSLAEKETHLTNLRAERRKHLEEVLEMKQEALLAAISEKDANIALLELSSSKKKTQEEVAALKREKDRLVQQLKQQTQNRMKLMADNYEDDHFKSSHSNQTNHKPSPDQIIQPLLELDQNRSKLKLYIGHLTTLCHDRDPLILRGLTPPASYNLDDDQAAWENELQKMTRGQLQDELEKGERDNAELQEFANAILQQIADHCPDILEQVVNALEESS",no binding,
"RAB6A-Q72L-S52D (GAL4 fusion) (protein, UniProt P20340 1-208) MSTGGDFGNPLRKFKLVFLGEQSVGKTSLITRFMYDSFDNTYQATIGIDFLDKTMYLEDRTVRLQLWDTAGLERFRSLIPSYIRDSTVAVVVYDITNVNSFQQTTKWIDDVRTERGSDVIIMLVGNKTDLADKRQVSIEEGERKAKELNVMFIETSAKAGYNVKQLFRRVAAALPGMESTQDRSREDMIDIKLEKPQEQPVSEGGCSC",,no binding
